The list shows a part of the results. For some assays here: Construct or isoform of the protein are uncertain.
How the values were obtained:
Test in all cases: protein microarray (ProtoArray v5.0), streptavidin-Alexa Fluor 647
Conditions in all cases: 3'-biotin; 20 mM Tris (pH 7.5), 5 mM MgCl2, 100 mM KCl, 0.1% Tween-20, A/T-rich and random oligonucleotide blockers; temperature not stated; high values mean tight binding
RIT2 = biological target: T1, RIT2 (UniProt Q99578)
T1 sequence: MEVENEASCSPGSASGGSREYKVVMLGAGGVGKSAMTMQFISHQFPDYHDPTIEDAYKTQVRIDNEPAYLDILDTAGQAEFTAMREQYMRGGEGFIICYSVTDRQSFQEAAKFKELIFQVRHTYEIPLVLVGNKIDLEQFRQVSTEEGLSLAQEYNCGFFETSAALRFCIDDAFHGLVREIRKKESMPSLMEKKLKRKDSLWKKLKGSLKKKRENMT

RLBP1 (human) = tested on: RLBP1 (human)
RLBP1L1 (human) = tested on: RLBP1L1 (human)
[1] = tested on: RNA polymerase II-associated protein 3 (human)
[2] = tested on: RNA-binding protein 40 (human)
[3] = tested on: RNA-binding protein with multiple splicing (human)
RNASE11 (human) = tested on: RNASE11 (human)
RNASE8 (human) = tested on: RNASE8 (human)
RNF11 (human) = tested on: RNF11 (human)
RNF141 (human) = tested on: RNF141 (human)
RNF4 = biological target: T2, RNF4 (UniProt P78317)
T2 sequence: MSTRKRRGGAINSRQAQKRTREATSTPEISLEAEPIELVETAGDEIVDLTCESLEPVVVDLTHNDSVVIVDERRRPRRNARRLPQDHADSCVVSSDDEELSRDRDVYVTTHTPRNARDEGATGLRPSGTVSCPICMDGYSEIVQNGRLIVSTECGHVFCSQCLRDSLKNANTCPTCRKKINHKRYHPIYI

RPAIN (human) = tested on: RPAIN (human)
RPIA = RPIA (UniProt P49247)
RPL31 = RPL31 (UniProt P62899)
RPLP2 (human) = tested on: RPLP2 (human)
RRN3 (human) = tested on: RRN3 (human)
RSBN1L = RSBN1L (UniProt Q6PCB5)
RTN1 = biological target: T3, RTN1 (UniProt Q16799)
T3 sequence: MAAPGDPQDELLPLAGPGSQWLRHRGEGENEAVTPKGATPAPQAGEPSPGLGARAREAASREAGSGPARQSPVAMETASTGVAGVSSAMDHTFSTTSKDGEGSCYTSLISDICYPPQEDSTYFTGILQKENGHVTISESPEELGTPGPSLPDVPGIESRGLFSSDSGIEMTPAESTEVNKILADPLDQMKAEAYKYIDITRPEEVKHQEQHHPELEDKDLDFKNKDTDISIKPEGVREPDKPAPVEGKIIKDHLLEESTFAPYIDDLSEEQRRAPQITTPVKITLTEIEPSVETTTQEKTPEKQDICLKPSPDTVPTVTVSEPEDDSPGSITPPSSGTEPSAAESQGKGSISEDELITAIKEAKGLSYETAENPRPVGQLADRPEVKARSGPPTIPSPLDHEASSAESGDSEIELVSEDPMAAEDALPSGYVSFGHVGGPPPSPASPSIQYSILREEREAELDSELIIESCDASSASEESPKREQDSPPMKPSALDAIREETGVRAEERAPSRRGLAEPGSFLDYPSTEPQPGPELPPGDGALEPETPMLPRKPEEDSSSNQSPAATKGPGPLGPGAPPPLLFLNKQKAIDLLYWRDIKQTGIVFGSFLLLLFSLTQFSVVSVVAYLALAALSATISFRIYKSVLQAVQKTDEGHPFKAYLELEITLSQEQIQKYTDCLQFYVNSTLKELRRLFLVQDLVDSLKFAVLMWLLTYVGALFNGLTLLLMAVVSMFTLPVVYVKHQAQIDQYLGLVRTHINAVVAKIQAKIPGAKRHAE

RUNX1T1 (human) = tested on: RUNX1T1 (human)
RWDD1 (human) = tested on: RWDD1 (human)

**Q.** Which binding signal (RIT2) does the source give for “GGTGACAGGGGTATGGGGAGGGG [G4-2 biotinylated (Ct1)]” here?
**A.** 4.81 z-score

**Q.** And the binding signal (RLBP1 (human))?
**A.** -0.397 z-score

**Q.** And the binding signal (RLBP1L1 (human))?
**A.** -0.399 z-score

**Q.** What about the binding signal [1] of the same sequence?
**A.** 6.32 z-score

**Q.** What about the binding signal [2] of the same sequence?
**A.** 3.18 z-score

**Q.** And the binding signal [3]?
**A.** -0.377 z-score

**Q.** What about the binding signal (RNASE11 (human)) of the same sequence?
**A.** -0.383 z-score

**Q.** What about the binding signal (RNASE8 (human)) of the same sequence?
**A.** -0.384 z-score

**Q.** And the binding signal (RNF11 (human))?
**A.** -0.388 z-score

**Q.** And the binding signal (RNF141 (human))?
**A.** -0.399 z-score

**Q.** And the binding signal (RNF4)?
**A.** 4.1 z-score

**Q.** And the binding signal (RPAIN (human))?
**A.** -0.366 z-score

**Q.** What about the binding signal (RPIA) of the same sequence?
**A.** -0.379 z-score

**Q.** What about the binding signal (RPL31) of the same sequence?
**A.** 3.19 z-score

**Q.** And the binding signal (RPLP2 (human))?
**A.** -0.398 z-score

**Q.** And the binding signal (RRN3 (human))?
**A.** -0.374 z-score

**Q.** And the binding signal (RSBN1L)?
**A.** 3.61 z-score

**Q.** What about the binding signal (RTN1) of the same sequence?
**A.** -0.382 z-score

**Q.** And the binding signal (RUNX1T1 (human))?
**A.** -0.39 z-score

**Q.** And the binding signal (RWDD1 (human))?
**A.** -0.373 z-score
